PubChem BioAssay AID1259425, University of Nebraska Medical Center | 2018

- Assay: 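Compare each knockdown with KSR1 silencing using changes in marker transcripts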 (primary screen)
- Cells: HCT116 human colon cancer cells
- Reagents: siRNA pool against human genes, 50 nM siRNA
- Measurement: 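After 50 nM siRNA pool, branched-DNA assay measures six marker transcripts per well, minus blank, normalised to the geometric mean of two housekeeping transcripts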
- Direction: BNIP3L mRNA: higher = more BNIP3L transcript after knockdown; NDRG1 mRNA: higher = more NDRG1 transcript after knockdown
Shown is one part, drawn at random, of about 14,000 reagents tested. Not all columns of the deposit are shown. Not stated in the record: the time to read-out.

UBE2D1: BNIP3L mRNA, set 1 = 0.0804; NDRG1 mRNA, set 1 = 0.198
GPR63: BNIP3L mRNA, set 1 = 0.245; NDRG1 mRNA, set 1 = 0.175
RAG2: BNIP3L mRNA, set 1 = 0.124; NDRG1 mRNA, set 1 = 0.278
CCL3L1: BNIP3L mRNA, set 1 = 0.0951; NDRG1 mRNA, set 1 = 0.19
GABRE: BNIP3L mRNA, set 1 = 0.137; NDRG1 mRNA, set 1 = 0.343
POLD2: BNIP3L mRNA, set 1 = 0.0773; NDRG1 mRNA, set 1 = 0.527
FEM1B: BNIP3L mRNA, set 1 = 0.0531; NDRG1 mRNA, set 1 = 0.0718
HRAS: BNIP3L mRNA, set 1 = 0.0788; NDRG1 mRNA, set 1 = 0.145
CDC25C: BNIP3L mRNA, set 1 = 0.137; NDRG1 mRNA, set 1 = 0.307
ATG9A: BNIP3L mRNA, set 1 = 0.136; NDRG1 mRNA, set 1 = 0.378
CATSPER1: BNIP3L mRNA, set 1 = 0.127; NDRG1 mRNA, set 1 = 0.112
NOL8: BNIP3L mRNA, set 1 = 0.275; NDRG1 mRNA, set 1 = 0.276
NMT1: BNIP3L mRNA, set 1 = 0.0838; NDRG1 mRNA, set 1 = 0.101
GRHL1: BNIP3L mRNA, set 1 = 0.0455; NDRG1 mRNA, set 1 = 0.146
SPN: BNIP3L mRNA, set 1 = 0.0628; NDRG1 mRNA, set 1 = 0.209
DCLRE1B: BNIP3L mRNA, set 1 = 0.105; NDRG1 mRNA, set 1 = 0.34
UGT1A5: BNIP3L mRNA, set 1 = 0.201; NDRG1 mRNA, set 1 = 0.209
FARS2: BNIP3L mRNA, set 1 = 0.115; NDRG1 mRNA, set 1 = 0.308
GABBR1: BNIP3L mRNA, set 1 = 0.132; NDRG1 mRNA, set 1 = 0.0932
ERO1B: BNIP3L mRNA, set 1 = 0.099; NDRG1 mRNA, set 1 = 0.0541
SIRPD: BNIP3L mRNA, set 1 = 0.106; NDRG1 mRNA, set 1 = 0.099
AIMP2: BNIP3L mRNA, set 1 = 0.0608; NDRG1 mRNA, set 1 = 0.168
TMEM132A: BNIP3L mRNA, set 1 = 0.0702; NDRG1 mRNA, set 1 = 0.685
C4B: BNIP3L mRNA, set 1 = 0.0802; NDRG1 mRNA, set 1 = 0.344
EBPL: BNIP3L mRNA, set 1 = 0.121; NDRG1 mRNA, set 1 = 0.162
ZNF83: BNIP3L mRNA, set 1 = 0.105; NDRG1 mRNA, set 1 = 0.132
SRD5A1: BNIP3L mRNA, set 1 = 0.0941; NDRG1 mRNA, set 1 = 0.147
LORICRIN: BNIP3L mRNA, set 1 = 0.175; NDRG1 mRNA, set 1 = 0.981

Reformatted: 5 of the entries above.
Gene | BNIP3L mRNA, set 1 | NDRG1 mRNA, set 1
ERO1B | 0.099 | 0.0541
SIRPD | 0.106 | 0.099
AIMP2 | 0.0608 | 0.168
TMEM132A | 0.0702 | 0.685
C4B | 0.0802 | 0.344
